Results are given in words; binding and its absence hold for the method and conditions named. Some entries that bind do so weakly or less than the wild type.
Assays:
[1] = target: His-tagged cynomolgus monkey Siglec15 protein (cynomolgus monkey); test: ELISA, His-tagged cynomolgus monkey Siglec15 coated
[2] = target: His-tagged cynomolgus monkey Siglec15 protein (cynomolgus monkey); test: ELISA, plate coated with His-tagged cynomolgus monkey Siglec15

B1: 1-7F4 monoclonal antibody (antibody, V domains shown)
VH: EVQLQQSGPELVKPGASVKMSCKASGYTFTTYVMHWVKQKPGQGLEWIGYINPYNDKTKYNEKFKGKATLTSDKSSSTAYMEVSRLTSEDSAVYYCGSGYDAMDYWGQGTSVTVSS
VL: DIQMTQSPASLSVSVGETVTITCRASENIYSHLAWYQQKQGKSPQLLIYSATNLADGVPSRFNGSGSGTQYSLKINSLQSEDFGSYYCQHFWGTPWTFGGGTKLEIK
- binding [1]: binds
- binding [2]: binds

B2: 1-15D1 monoclonal antibody (antibody, V domains shown)
VH: EVQLQQSGPELVKPGASVKMSCKASGYTFTTYVMHWVKQKPGQGLEWIGYINPYNDNTKYNEKFKGKATLTSDKSSSTAYMELSSLTSEDSAVYYCGSGYDAMDYWGQGTSVTVSS
VL: DIQMAQSPASLSVSVGETVTITCRTSENIYSHLAWYQQKQGKSPQLLVYSATNLADGVPSRFNGSGSGTQYSLKINSLQSEDFGSYYCQHFWGTPWTFGGGTKLEIK
- binding [1]: binds
- binding [2]: binds

B3: 1-10E5 monoclonal antibody (antibody, V domains shown)
VH: DVKLVESGGGLVKPGGSLKLSCVVSGLTFSRYTMSWVRQTPEKRLEWVATISSGGNSTYYPDSVKGRFTISRDDAKDTLYLQMSSLKSEDTAMYYCTNYGYFFDYWGQGTTLTVSS
VL: DIQMTQSPASLSASVGETVTITCRASENIYSFLAWYQQKQGKSPQLLVYNAKTLAEGVPSRFSGSGSGTQFSLKINSLQPEDFGSYYCQHHYDRPLTFGAGTKLELK
- binding [1]: binds
- binding [2]: binds

B4: 14A7 monoclonal antibody (antibody, V domains shown)
VH: DVQLQESGPGLVKPSQSLSLTCTVTGYSITSDFAWNWIRQFPGNKLEWMGYIRFSGSTTYKPTLKSRISITRDTSKNQFFLQLNSVTTEDSATYYCAREDYDGLFDYWGQGTTLTVTS
VL: DVLMTQTPLSLPVSLGDHASISCRSSQTILHSNGNTYLDWYLQKPGQSPKLLIYKVSNRFSGVPDRFSGSGSGTDFTLKISRVEAEDLGVYYCFQGSHVPYTFGGGTKLEIK
- binding [1]: binds
- binding [2]: binds
